The list shows a part of the results.
Test system: T1, CTL2-GFP (C. trachomatis L2/434/Bu, GFP-expressing)
T1 construct: L2/434/Bu, GFP-expressing
Design: species or system HeLa; Intracellular C. trachomatis growth in HeLa cells, bulk GFP fluorescence relative to DMSO
Conditions: bulk GFP, single well; 28.5 h, 10 µM; inhibitor

| Compound | % of control remaining |
| --- | --- |
| CCc1nnc(NC(=O)COC(=O)CSc2nc(C)cc(C)n2)s1 [CBK018792] | 112.038% |
| COc1cc(C(=O)Nc2nc3c(C)cccc3s2)cc(OC)c1OC [CBK287302] | 92.6087% |
| COC(=O)c1cccn2cc(CN(CC#N)C3CC3)nc12 [CBK305821] | 172.139% |
| COCc1cn(C2CC(O)C(CO)O2)c(=O)[nH]c1=O (stereo not shown) [CBK201230] | 132.087% |
| Cn1cc(C2CCCCCN2Cc2cc(Cl)ccc2O)cn1 (stereo not shown) [CBK282941] | 128.906% |
| COc1ccc(OC)c(C2C(C(=O)c3ccccc3)=C(O)C(=O)N2CCN2CCOCC2)c1 (stereo not shown) [CBK264748] | 113.832% |
| COc1cccc(-c2cncc(C3CN(Cc4cccc5ncccc45)CCO3)n2)c1 (stereo not shown) [CBK285973] | 75.0258% |
| CC(=O)Nc1ccc(S(=O)(=O)Nc2cccc(C(=O)O)c2)cc1 [CBK050407] | 100.179% |
| O=C1c2cccc3cccc(c23)C(=O)N1CCN1CCN(CC(O)COc2ccccc2)CC1 (stereo not shown) [CBK266255] | 122.584% |
| O=C(/C=C\c1ccccc1)CC1(O)C(=O)N(Cc2cccc3ccccc23)c2ccccc21 (stereo not shown) [CBK264761] | 116.615% |
| O=C(c1ccc(-c2nccnc2NCCc2c[nH]c3ccccc23)cc1)N1CCOCC1 [CBK036891] | 159.592% |
| N#Cc1ccc(C(=O)Nc2cncc(OC3CCNCC3)n2)cc1 [CBK036371T] | 128.378% |
| O=C(CN1C(=O)S/C(=C\C=C\c2ccccc2)C1=O)Nc1cccc2c1C(=O)c1ccccc1C2=O [CBK263870] | 119.755% |
| Cc1cnn(C2CCCN(C(=O)Cc3cccs3)C2)c1 (stereo not shown) [CBK304832] | 96.0849% |
| Cc1ccc(NC(=O)c2cncnc2)c(C)n1 [CBK200380] | 118.178% |
| CC(=O)Nc1ccc(OCC(O)Cn2nc(-c3ccco3)oc2=O)cc1 (stereo not shown) [CBK305615] | 151.005% |
| O=C(NCc1ccccc1)c1ccc2[nH]c(=O)c(-c3ccccc3)c(O)c2c1 [CBK160318] | 66.1351% |
| CC(C)[C@H](CO)Nc1cncc(-c2ccccc2CO)n1 [CBK065326] | 95.7416% |
| c1ccc(CN2CCN(Cc3ccccc3)C2c2ccco2)cc1 [CBK260888] | 100% |
| O=C(O)c1ccc(NS(=O)(=O)c2ccc(Br)cc2)cc1 [CBK034058] | 118.909% |
| O=C(N1CCn2cnnc2C1)C1(c2ccccc2)CCCC1 [CBK283926] | 127.213% |
| COc1ccc(C(=O)N2Cc3nc[nH]c3C[C@H]2c2nc(-c3ccc(OC)cc3)no2)cc1 [CBK288966] | 98.7941% |
| N#Cc1ccc(C(=O)N2CCN3C(=O)[C@H](Cc4ccc(F)cc4)NC(=O)[C@H]3C2)cc1 [CBK289602] | 103.572% |
| Cc1ccccc1-c1nnc(-c2ccc(C(=O)N=c3sccn3C)cc2)o1 [CBK298283] | 102.542% |
| CC(=O)N1C[C@H]2CCCN(S(=O)(=O)c3ccc(F)cc3)[C@H]2C1 [CBK285283] | 129.371% |
| O=C(NC1CCN(Cc2c(F)cccc2Cl)CC1)c1cccs1 [CBK057035] | 132.056% |
| CC(C)(C)c1ccc(/C=N/NC(=O)CCSc2ccc(Cl)cc2)cc1 [CBK263696] | 100% |

| Compound | % of control remaining |
| --- | --- |
| O=c1[nH]nc(SCCCOc2ccc(Cl)cc2)n1C1CC1 [CBK295597] | 80.2266% |
| COc1ccc(CCCC(=O)Nc2ccc(N3CCNCC3)nc2)cc1OC [CBK028272T] | 100% |
| CCCOCCCn1ccc2nc(OC)c(C#N)cc2c1=O [CBK307162] | 107.871% |
| CSc1ccccc1NC(=O)CN(c1ccc(F)cc1)S(=O)(=O)c1ccc2c(c1)OCCO2 [CBK266836] | 191.427% |
| COc1ccnc(NC(c2cnn(C)c2)[C@H]2C[C@@H](O)C2)n1 (stereo partly shown) [CBK306617] | 125.911% |
| COCCc1nc(-c2csc(CN(C)C)n2)n(Cc2ccccc2C)n1 [CBK306735] | 116.476% |
| NS(=O)(=O)c1ccc(NC(=O)CN2CCN(c3cccc(C(F)(F)F)c3)CC2)cc1 [CBK266180] | 203.024% |
| [O-][S+](CC(O)COc1ccc(Cl)cc1)c1ccccn1 (stereo not shown) [CBK261750] | 100% |
| Cc1ccc(C(=O)O)cc1NC(=O)C(C)Oc1cccc(Cl)c1 (stereo not shown) [CBK268331] | 119.39% |
| COc1ccc(CNC(=O)c2sc3ncnc(N(C)C4CCCCC4)c3c2C)cc1 [CBK294431] | 180.142% |
| CCC1(CC)OC(NCc2ccccc2)=NC1=O [CBK122636] | 124.266% |
| O=C(Nc1ccncc1)c1ccc2nc[nH]c2c1 [CBK269034] | 120.53% |
| O=C(Cc1ccc2c(c1)CCCC2)Nc1cccc(-c2nnn[nH]2)c1 [CBK297129] | 126.955% |
| Cn1cc(C(=O)Nc2ccccc2N2CCNCC2)c2ccccc21 [CBK034141T] | 124.355% |
| CN1CCN(C(=O)c2c(NS(=O)(=O)/C=C/c3ccccc3)sc3c2CCCC3)CC1 [CBK050417] | 100% |
| COCC(=O)Nc1ccc(N2CCCC2=O)c(Cl)c1 [CBK256871] | 111.218% |
| CSc1ccc2cc(CSc3nnc(-c4cccs4)n3CC(=O)O)c(Cl)nc2c1 [CBK295298] | 182.375% |
| CC(=O)C1=C(C)N(CC2CCCO2)C(=O)C1(NC(=O)c1ccc(C(C)(C)C)cc1)C(F)(F)F (stereo not shown) [CBK268043] | 126.634% |
| COc1nn(CC(=O)Nc2cccc(CCc3ccncc3)c2)c(=O)c2ccccc12 [CBK285560] | 105.623% |
| Cc1cc2nc(CC(=O)NN)[nH]c2cc1C [CBK012180] | 122.125% |
| COc1ccc(Br)c(C(=O)Nc2[nH]nc(O)c2Cc2c(Cl)cccc2Cl)c1 [CBK084554] | 99.0684% |
| OC(COc1ccc2c(c1)OCO2)CN1CCN(C(c2ccccc2)c2ccccc2)CC1 (stereo not shown) [CBK074854C] | 128.958% |
| COc1ccccc1C1(O)CCN(Cc2ccccc2OCc2ccc3c(c2)OCO3)CC1 [CBK286337] | 95.9535% |
| O=C(CC1CCCC1)N1CCC(c2nnc(-c3ccsc3)o2)CC1 [CBK283381] | 70.8963% |
| Cn1c(=O)oc2cc(S(=O)(=O)NCc3ccccc3)ccc21 [CBK267568] | 133.967% |
| N#Cc1ccc(CNC(=O)c2ccc(-c3ccc(OC(F)(F)F)cc3)nc2)cc1 [CBK156249] | 100.822% |
| Cc1cc(=O)n2c3ccccc3n(CC(O)CN3CCN(C(c4ccccc4)c4ccccc4)CC3)c2c1C#N (stereo not shown) [CBK268375] | 132.549% |

Random excerpt: four records from the list, in no set order.

| Compound | % of control remaining |
| --- | --- |
| Cc1cc2nc(CC(=O)NN)[nH]c2cc1C [CBK012180] | 122.125% |
| CN1CCN(C(=O)c2c(NS(=O)(=O)/C=C/c3ccccc3)sc3c2CCCC3)CC1 [CBK050417] | 100% |
| CSc1ccc2cc(CSc3nnc(-c4cccs4)n3CC(=O)O)c(Cl)nc2c1 [CBK295298] | 182.375% |
| NS(=O)(=O)c1ccc(NC(=O)CN2CCN(c3cccc(C(F)(F)F)c3)CC2)cc1 [CBK266180] | 203.024% |

Continuation.

| Compound | % of control remaining |
| --- | --- |
| c1ccc(CN2CCC3(CC2)CNCc2ccccc2O3)cc1 [CBK282605] | 120.945% |
| FC(F)(F)c1cccc(-c2cnn(-c3ccc4c(c3)OCO4)n2)c1 [CBK112664] | 121.916% |
| CC(=O)NCC1CC(N2CCSCC2)=NO1 (stereo not shown) [CBK010367] | 101.21% |
| Cn1cc([C@@H]2CN(Cc3ccc(F)c(F)c3)C[C@H]2N)c2ccncc21 [CBK285179] | 126.304% |
| S=c1[nH]cnc2scc(-c3ccc(Cl)cc3)c12 [CBK094069] | 124.735% |
| CCN1CCN(C(=O)CN(c2ccccc2)S(=O)(=O)N(C)C)CC1 [CBK268222] | 96.0595% |
| O=C(COc1ccc(F)cc1)N1CCCC1c1cccc(Cc2ccc(F)cc2)n1 (stereo not shown) [CBK286235] | 132.309% |
| Cc1cccc(CN2CCC[C@@H]3CN(C(=O)CC(C)C)C[C@@H]32)n1 [CBK285291] | 124.299% |
| Cc1[nH]nc(O)c1Cc1ccccc1F [CBK105306] | 62.324% |
| COc1ccc(C(=O)N(C)C)cc1OC [CBK015550] | 86.1939% |
| CN(C)C(=O)CN1CC[C@@H](c2ccccc2)[C@H](O)C1 [CBK283979] | 124.07% |
| COc1ccccc1C(CN)C1CCCCC1 (stereo not shown) [CBK009878] | 128.589% |
| CCN1CCN(Cc2nc3c(c(=O)n(C)c(=O)n3C)n2CCc2ccccc2)CC1 [CBK269547] | 86.9589% |
| O=C(NCCCCNC(=O)c1scc(-c2ccccc2)c1C(=O)O)c1scc(-c2ccccc2)c1C(=O)O [CBK296086] | 124.367% |
| COc1cc(/C=C2\N=C(c3cc(Cl)ccc3OC)OC2=O)ccc1OC(=O)c1ccccc1 [CBK265069] | 135.14% |
| CCN(C(=O)C(C)N(C)Cc1c(C)nn(C2CCS(=O)(=O)C2)c1C)c1cccc2ccccc12 (stereo not shown) [CBK295206] | 156.822% |
| Nc1ncnc(Nc2cc(C(F)(F)F)cc(C(F)(F)F)c2)n1 [CBK006617] | 122.055% |
| CCCOc1nccnc1N1CCNCC1 [CBK001839G] | 125.754% |
| NC(=O)CSc1nnc(COc2cccc(Cl)c2)n1-c1ccccc1 [CBK267685] | 123.896% |
| CCC(CC)C(=O)N1CCCC(c2cc3cccnc3[nH]2)C1 (stereo not shown) [CBK284926] | 91.807% |
| Cc1nn(C)cc1-c1cncn1Cc1ccccc1CN(C)C [CBK281985] | 98.2952% |
| COc1ccccc1-c1c(O)n[nH]c1CCC1CCCC1 [CBK075128] | 130.629% |
| Nc1ncc(-c2ccccc2CO)nc1Nc1ccc2[nH]ccc2c1 [CBK063843] | 124.096% |
| CNC(=O)c1cccc(NC(=O)C(C)N(C)Cc2cnc(C)s2)c1 (stereo not shown) [CBK305735] | 101.002% |
| NS(=O)(=O)c1ccc(S(=O)(=O)N2CCN(C/C=C/c3ccccc3)CC2)cc1 [CBK266723C] | 157.953% |
